For assay [1], the target named is T1, neuropilin-1 extracellular domain, AP- or Fc-tagged (interactome library) (not stated (human or mouse sequence cloned)) (UniProt P97333).
T1 sequence: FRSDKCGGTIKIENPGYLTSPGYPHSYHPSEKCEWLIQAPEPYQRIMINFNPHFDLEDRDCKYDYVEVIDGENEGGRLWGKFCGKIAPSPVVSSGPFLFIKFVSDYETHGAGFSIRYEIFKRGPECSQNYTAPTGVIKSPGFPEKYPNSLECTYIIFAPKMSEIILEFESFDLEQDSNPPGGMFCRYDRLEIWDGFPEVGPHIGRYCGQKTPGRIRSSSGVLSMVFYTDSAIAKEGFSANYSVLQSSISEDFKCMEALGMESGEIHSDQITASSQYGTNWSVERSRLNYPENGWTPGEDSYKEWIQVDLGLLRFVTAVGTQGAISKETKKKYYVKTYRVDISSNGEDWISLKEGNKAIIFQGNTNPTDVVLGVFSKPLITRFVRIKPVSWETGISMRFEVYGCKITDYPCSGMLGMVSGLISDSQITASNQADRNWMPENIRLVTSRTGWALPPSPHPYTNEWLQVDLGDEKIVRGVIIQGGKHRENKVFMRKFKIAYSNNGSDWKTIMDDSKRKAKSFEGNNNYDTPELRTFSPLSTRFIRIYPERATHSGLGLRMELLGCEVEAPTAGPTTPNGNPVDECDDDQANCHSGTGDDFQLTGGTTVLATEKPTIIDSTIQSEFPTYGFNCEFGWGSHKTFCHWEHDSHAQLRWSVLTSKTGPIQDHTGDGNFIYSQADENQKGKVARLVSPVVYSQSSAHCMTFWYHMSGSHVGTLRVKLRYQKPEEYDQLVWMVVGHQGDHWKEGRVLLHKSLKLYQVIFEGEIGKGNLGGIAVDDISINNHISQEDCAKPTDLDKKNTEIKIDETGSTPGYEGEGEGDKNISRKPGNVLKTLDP
Nature of the assay: ELISA; 384-well pairwise screen; ecto-AP bait captured by plate-bound anti-AP antibody, ecto-Fc prey detected with anti-human IgG1-HRP; conditioned media; 4 h at RT; both orientations, three independent experiments; positive = OD650 > 5-fold over background, detected at least twice. Background: An ELISA detects its analyte on a solid surface through an enzyme-linked reagent.

Sequences of proteins named here, by UniProt entry; tags and fusion partners are left off. Residues count along the entry.
UniProt Q61361, residues 23-883: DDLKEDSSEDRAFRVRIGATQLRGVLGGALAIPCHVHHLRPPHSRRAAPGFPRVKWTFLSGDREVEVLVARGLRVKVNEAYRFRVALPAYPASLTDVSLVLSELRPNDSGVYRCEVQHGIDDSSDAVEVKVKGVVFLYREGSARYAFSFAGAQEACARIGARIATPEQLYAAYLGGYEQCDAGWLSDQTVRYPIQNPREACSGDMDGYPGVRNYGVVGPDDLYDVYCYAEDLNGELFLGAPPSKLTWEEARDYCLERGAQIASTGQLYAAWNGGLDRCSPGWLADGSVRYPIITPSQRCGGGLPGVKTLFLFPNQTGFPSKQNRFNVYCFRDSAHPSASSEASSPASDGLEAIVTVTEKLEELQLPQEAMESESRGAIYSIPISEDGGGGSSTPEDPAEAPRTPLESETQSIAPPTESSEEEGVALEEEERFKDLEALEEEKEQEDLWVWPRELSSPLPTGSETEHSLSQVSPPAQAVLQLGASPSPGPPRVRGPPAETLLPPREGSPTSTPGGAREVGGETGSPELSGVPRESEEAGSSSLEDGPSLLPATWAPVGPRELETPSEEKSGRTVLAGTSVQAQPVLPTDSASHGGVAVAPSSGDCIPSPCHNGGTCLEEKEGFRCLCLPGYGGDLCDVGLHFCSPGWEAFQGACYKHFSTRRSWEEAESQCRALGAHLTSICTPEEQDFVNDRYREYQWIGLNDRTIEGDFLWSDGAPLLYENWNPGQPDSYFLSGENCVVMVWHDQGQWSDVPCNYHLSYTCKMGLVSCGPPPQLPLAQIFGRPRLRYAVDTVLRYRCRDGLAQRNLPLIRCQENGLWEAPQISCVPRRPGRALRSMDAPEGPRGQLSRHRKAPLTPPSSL
UniProt Q69ZK9, residues 15-678: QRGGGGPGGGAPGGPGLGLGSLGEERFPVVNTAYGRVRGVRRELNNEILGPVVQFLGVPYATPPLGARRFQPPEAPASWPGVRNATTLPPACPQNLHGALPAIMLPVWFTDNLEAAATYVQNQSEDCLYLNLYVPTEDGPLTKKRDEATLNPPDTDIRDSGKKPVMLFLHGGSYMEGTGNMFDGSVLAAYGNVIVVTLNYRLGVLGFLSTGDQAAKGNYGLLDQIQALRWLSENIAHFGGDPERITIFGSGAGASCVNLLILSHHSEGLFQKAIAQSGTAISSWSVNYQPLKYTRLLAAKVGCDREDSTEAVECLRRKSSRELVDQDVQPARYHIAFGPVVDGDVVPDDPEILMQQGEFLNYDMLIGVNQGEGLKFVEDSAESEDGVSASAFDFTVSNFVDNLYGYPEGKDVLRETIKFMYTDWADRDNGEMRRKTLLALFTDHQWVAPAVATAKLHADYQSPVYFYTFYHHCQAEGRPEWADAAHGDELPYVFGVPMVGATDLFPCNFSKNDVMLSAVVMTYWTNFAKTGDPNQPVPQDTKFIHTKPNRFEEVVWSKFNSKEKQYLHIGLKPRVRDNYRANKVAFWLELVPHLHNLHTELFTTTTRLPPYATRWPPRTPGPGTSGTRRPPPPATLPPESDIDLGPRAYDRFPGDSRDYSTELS

The target of a further assay is Brevican-Fc (mouse) (UniProt Q61361). Nature of the assay: condition: 1 µg His-tagged IgSF8 in 1 ml with equimolar Brevican-Fc; pull-down; direct binding assay: 1 µg His-tagged IgSF8 with equimolar Fc protein in 1 ml 10 mM HEPES pH 7.4, 150 mM NaCl, 2 mM CaCl2, 1 mM MgCl2, 0.1% Tween-20, 1 h RT; Protein-A/G agarose; anti-His western blot; both purified.
The target of assay [2] is T2, Tenascin-R-Fc, purified (not stated (human or mouse sequence cloned)) (UniProt Q8BYI9).
T2 sequence: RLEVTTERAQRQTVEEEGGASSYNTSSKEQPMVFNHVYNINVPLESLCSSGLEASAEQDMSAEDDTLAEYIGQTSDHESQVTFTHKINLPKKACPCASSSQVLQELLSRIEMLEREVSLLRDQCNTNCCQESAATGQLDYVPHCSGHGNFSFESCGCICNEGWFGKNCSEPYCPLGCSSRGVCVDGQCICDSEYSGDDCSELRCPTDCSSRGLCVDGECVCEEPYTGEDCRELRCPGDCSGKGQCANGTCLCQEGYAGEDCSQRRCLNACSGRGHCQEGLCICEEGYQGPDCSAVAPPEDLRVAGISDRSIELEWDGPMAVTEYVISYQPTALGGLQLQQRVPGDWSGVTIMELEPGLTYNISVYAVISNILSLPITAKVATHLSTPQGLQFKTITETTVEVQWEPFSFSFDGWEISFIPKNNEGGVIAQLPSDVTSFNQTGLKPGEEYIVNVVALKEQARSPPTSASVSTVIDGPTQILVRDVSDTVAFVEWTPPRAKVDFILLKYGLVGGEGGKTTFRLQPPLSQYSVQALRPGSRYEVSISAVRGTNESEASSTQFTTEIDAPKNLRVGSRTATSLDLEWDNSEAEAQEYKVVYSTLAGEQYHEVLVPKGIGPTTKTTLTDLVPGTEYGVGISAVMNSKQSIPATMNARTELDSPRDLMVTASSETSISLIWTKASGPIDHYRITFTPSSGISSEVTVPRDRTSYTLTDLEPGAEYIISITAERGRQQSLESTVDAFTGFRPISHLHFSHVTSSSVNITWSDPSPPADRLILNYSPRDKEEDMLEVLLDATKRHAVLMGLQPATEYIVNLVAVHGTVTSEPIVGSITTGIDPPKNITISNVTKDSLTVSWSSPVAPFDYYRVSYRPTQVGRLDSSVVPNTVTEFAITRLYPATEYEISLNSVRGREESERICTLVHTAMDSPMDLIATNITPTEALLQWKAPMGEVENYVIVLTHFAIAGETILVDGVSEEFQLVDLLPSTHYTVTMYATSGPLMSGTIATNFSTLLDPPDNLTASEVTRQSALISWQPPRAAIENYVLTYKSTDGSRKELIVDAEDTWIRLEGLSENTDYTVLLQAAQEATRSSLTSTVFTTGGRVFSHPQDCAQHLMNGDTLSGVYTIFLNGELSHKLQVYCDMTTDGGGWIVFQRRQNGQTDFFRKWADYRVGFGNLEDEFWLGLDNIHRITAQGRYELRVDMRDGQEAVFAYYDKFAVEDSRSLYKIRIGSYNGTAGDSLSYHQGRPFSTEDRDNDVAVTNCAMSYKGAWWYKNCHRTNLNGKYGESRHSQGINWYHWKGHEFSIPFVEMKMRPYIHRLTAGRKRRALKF
Nature of the assay: pull-down; direct binding assay: 1 µg His-tagged IgSF8 with equimolar Fc protein in 1 ml 10 mM HEPES pH 7.4, 150 mM NaCl, 2 mM CaCl2, 1 mM MgCl2, 0.1% Tween-20, 1 h RT; Protein-A/G agarose; anti-His western blot; both purified. (In general: A western blot detects proteins with antibodies after separation by electrophoresis.)

Results are given in words; binding and its absence hold for the method and conditions named. Some entries that bind do so weakly or less than the wild type. Sequences can lack the tags named with a protein.

Regarding “NLGN2 extracellular domain, AP- or Fc-tagged (interactome library) (from UniProt Q69ZK9 15-678) (domain or fragment)”, in assay [1], the binding entry is on record as “binds”.

B1: recombinant His-tagged mouse IgSF8 (protein, UniProt Q8R366 26-577)
chain: RQVHVPRGPLYRVAGTAVSISCNVSDYEGPAQQDFEWFMYRPEAPATSLGIVSTKDSQFSYAVFGPRVASGDLQVQRLKGDSVVLKIARLQAQDSGFYECYTPSTDTQYLGNYSAKVELRVLPDELQVSAAPPGPRGRQAATSPSRLTVHEGQELALGCLAQTKTKKHTHLSVSFGRAIPEAPVGRATLQEVVGLRSDMAVEAGAPYAERLASGELRLSKEGTDRYRMVVGGAQAGDSGTYHCTAAEWIQDPDGSWVQVAEKRAVLAHVDVQTLSSQLAVTVGPGERRIGPGEPLELLCNVSGALPPPGRHAAYSVGWEMAPAGAPGPGRLVAQLDTEGIGSLGPGYEDRHIAMEKVASRTYRLRLEAARPADAGTYRCLAKAYVRGSGTRLREAASARSRPLPVHVREEGVVLEAVAWLAGGTVYRGETASLLCNISVRGGPPGLRLAASWWVERPEEGELSSGPAQLVGGVGQDGVAELGVRPGGGPVSVELVGPRSHRLRLHGLGPEDEGIYHCAPSAWVQHADYSWYQAGSARSGPVTVYPYTHAVDT
Consider B1, for which the binding entry is “no binding” with Brevican-Fc (mouse) and “binds” in assay [2].

For the origin of these results see paper PMC7560607, “Synapse type-specific proteomic dissection identifies IgSF8 as a hippocampal CA3 microcircuit organizer” (Nature Communications, 2020).
